From PubChem BioAssay AID1347423 (Functional Genomics Laboratory (NCATS/FGL), 2020)
The whole screen tested about 52,000 sequences, of which about 210 (0.4%) were called active.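 The calls were made as follows: active = gene whose silencing raises cell survival under the drug, median off-target-corrected z-score across its silencing RNAs 2 or more; inactive = the rest.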 The list shows a part of the results.

Test: Resistance to Poly (ADP-Ribose) Polymerase inhibitor: Gene Identification via Genome-wide siRNA Screen
Conditions: mouse BRCA2 R2336H ES cells, olaparib, CellTiter-Glo viability; active compounds read high
How it was run: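 Mouse BRCA2 R2336H ES cells were reverse-transfected with siRNA (20 nM final), treated at 48 h with 500 nM olaparib, and read by CellTiter-Glo after 72 h. Scores: MAD-based z per siRNA, median per gene, seed off-target correction.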
In the case of GGUUCAGCAAGAAGAAUCATT against Cyp3a13, the z-score is reported as inactive: -0.675. For GGUCUUCUCCCAAAUAAAUTT against Lcmt1, the z-score was inactive: 0.155. For GGCUUUGGAAGUAUCUUUGTT against Pcsk7, the z-score was inactive: -1.37. In the case of CCAUUCUUGGAUAGACAUATT against Pilrb, the z-score is reported as inactive: -0.119. For GUGAAGAGAAGGCUUGAGUTT against Ifna11, the z-score was inactive: 0.922. For “CCUGCCAAUUUGUUUUUUGTT against 2900054P12Rik”, the z-score was inactive: -0.0695. In the case of GAGAUCUUACCCAGCAGAUTT against Ifna4, the z-score is reported as inactive: -1.22. In the case of “CGGUUACCACCUCACAUUCTT against 4933421H10Rik”, the z-score is reported as inactive: 0.601. With “GGGUUUGAGAAUUUGAAGCTT against 4930435C18Rik” the z-score was inactive: 1.31. With GGAUACAGUUUCUGAAAUCTT against Wbscr14 the z-score was inactive: 0.129. With GGAUGCUCACCUUCAAAUUTT against Il2 the z-score was inactive: -1.16. For GGUUCUCCUGAUUUGUUUATT against Sdhc, the z-score was inactive: -0.591. For GGUUUGUUUCCUGACAUUATT against Sh3gl3, the z-score was inactive: 0.232. With GGACUUUGACCCGUACUAUTT against Scn8a the z-score was inactive: -0.352. In the case of GGGUAUUUCCUGGUGGAUUTT against Mrps6, the z-score is reported as inactive: -0.573. With GGGAACUUUCCUCAAGUCUTT against Phactr3 the z-score was inactive: 1.38. For CGACUGUCAGAUUACAACATT against Ubl4, the z-score was inactive: -1.52. For GGUGUCUGUGCCUAUCAUCTT against Slc34a3, the z-score was inactive: 0.464. For CCCUCAUUCUCUAGCGUGATT against H2-K1, the z-score was inactive: -0.105. In the case of GGCUAAAUGGGAAACCUGGTT against Cdkn2b, the z-score is reported as inactive: -0.298. In the case of GGCAACUUCAAGUCCAUAUTT against Pnma3, the z-score is reported as inactive: 1.72. In the case of GCCCAAACUGCUCUACUGCTT against Fgf1, the z-score is reported as inactive: 1.43. In the case of GCACAGGAAACAAUUGAUATT against Stxbp4, the z-score is reported as inactive: 0.117. For CCACGAUCAAGGAGAAUGUTT against Apoa4, the z-score was inactive: 1.11. With CCCAUGCUUGGAAUAAUUATT against Man1a the z-score was inactive: -0.351. With CCAGUUUGUACAUAGUGUATT against Rab35 the z-score was inactive: 2.03. With GCUAGUGAAAAAGAUCGACTT against Kcnn2 the z-score was inactive: 0.557. For GGAGUUAGGCUGUAGAAGUTT against Dpysl2, the z-score was inactive: 0.156. In the case of GGCUGAUUCUCCUUCUACCTT against Solh, the z-score is reported as inactive: 1.81. With CCAUGGAGAAUCAUGACAGTT against Slfn1 the z-score was inactive: 0.281. For GCUUUGGAUCAUUCAGACCTT against Cugbp2, the z-score was inactive: -1.04. With GGCUGUGAAGAAAUACCACTT against Lcp2 the z-score was inactive: 0.153. For GGAUAUUCUUUCCAGGCUATT against Fanca, the z-score was inactive: -0.885. In the case of GCAAUUUCGUGUGAGAGACTT against Rp2h, the z-score is reported as inactive: -0.396. With GUAACUGUCACCCAGAGAATT against Defb10 the z-score was inactive: 0.388. With GGCCAAGCAUCCUGAACAATT against B3galt6 the z-score was inactive: -0.672. In the case of CCUUUCCUAACUUGAUCACTT against Cbr2, the z-score is reported as inactive: 0.242. With GGCUAUGGCAGUUAUCAAATT against Eif2s1 the z-score was inactive: -1.59. With CGGUCCACAUGAUCAUUCCTT against Dlgh2 the z-score was inactive: 0.267. For CUUUUACACCAUCAUGACGTT against Mrgpra5, the z-score was inactive: -0.487. For “GGAGACCUUAAAAGAACAUTT against 2310042L06Rik”, the z-score was inactive: 0.267. With GGAUCCUGAAACAGUUCAATT against Atm the z-score was inactive: 0.389. For “GGUAAUUUGUAAGGAACCCTT against 4921503C21Rik”, the z-score was inactive: -0.0422. With GCGCAGGAUGAGAAGUUCUTT against Slc43a3 the z-score was inactive: -0.657. For “CCAAAUGGAGGAGAUUAGCTT against 4930517G15Rik”, the z-score was inactive: 0.223. In the case of GGAGCACAGGUCUAUGAACTT against Neu4, the z-score is reported as inactive: 2.49. In the case of GGCAGCUAACAAGACAUGUTT against Vegfc, the z-score is reported as inactive: 1.32. For CCUCAUUUCAAGACUGUUATT against Stk6, the z-score was inactive: -0.436. With GCCCAUCUUCCUAGUGUUUTT against Atp6v0b the z-score was inactive: 0.209. In the case of GCGAACUGUCCAAAACCAATT against Nr5a2, the z-score is reported as inactive: -0.341. With UGCCGUAGGACUCAUCGGUTT against Olfr151 the z-score was inactive: 0.948. In the case of GGACCAAGCUGUGUACUCUTT against Olfr346, the z-score is reported as inactive: 1.27. With CCAGACAUGAUACUCCGGCTT against Stk22c the z-score was inactive: 0.255. With GGUGAUGACGAAGGAAUCCTT against Zfpm2 the z-score was inactive: 1.17. In the case of GCAAGAUCCAGCCCUAUCATT against Dub2, the z-score is reported as inactive: -0.118. With GCUGCCUAUUUACUGAUCCTT against Chrm3 the z-score was inactive: 1.24. With GCAAGUACAACCAUUGGUUTT against Bcmo1 the z-score was inactive: 0.311. With CCAUCACUACACGAAAUUGTT against Fgf12 the z-score was inactive: -0.0505. In the case of GGGCAGGAUUCAGGGAACATT against Ntrk3, the z-score is reported as inactive: 0.906. In the case of GCCCAAGCGAUCUUUGCAUTT against Ltap, the z-score is reported as inactive: -0.325. In the case of “CGAGAUAUUCGUGGACUAUTT against 6330548G22Rik”, the z-score is reported as inactive: -1.37. In the case of CAACUCUCUUGCUCAGACATT against Olfr814, the z-score is reported as inactive: -1.12. For GCGCAACUCCAUGAGGAGATT against Kcnj8, the z-score was inactive: -0.0935. In the case of GCAAGAUCUGUAUGUCCGCTT against Ebf3, the z-score is reported as inactive: -0.0362. In the case of “GCAUUAGGUAAAACUCUUATT against 4932443D16Rik”, the z-score is reported as inactive: 0.994. For UUGCAUUACGUGUGGUAUGTT against Mustn1, the z-score was inactive: -0.432. With CCAGGUGAAAACCAGGAUATT against Olfr205 the z-score was inactive: 0.33. With GGAACCACAUGACUUCAGCTT against Tctex1 the z-score was inactive: -0.00883. In the case of “GCCCAUCUGAUGAAUACAATT against 2610012O22Rik”, the z-score is reported as inactive: -0.299. For GGCCAUUGCCUCUUCUACUTT against Plekha4, the z-score was inactive: 0.227. For GGUCACUAUCUCUGAUUUCTT against Bpil1, the z-score was inactive: 0.402. For GGAACACACCAUCAUCCAGTT against H2-Ea, the z-score was inactive: -0.373. For GGCUCAUUCCUCUUCUUCCTT against Serhl, the z-score was inactive: 2.98. In the case of GCAUUCAGAAUGAGCUGACTT against Nfasc, the z-score is reported as inactive: -0.0641. In the case of GCCGGAAGAUAAGGCUCAUTT against Gap43, the z-score is reported as inactive: -1.62. With GGAAGUCAAUCAGAGUCUGTT against Chd1 the z-score was inactive: -1.05. In the case of GCUUUCAGAUGGCUUUAAUTT against Psmc6, the z-score is reported as inactive: -2.89. For CCACCUUUCGUGCAUUAUCTT against Coro6, the z-score was inactive: 1.06. In the case of CCAUGUGUAAAGGGAGAAATT against Nxph2, the z-score is reported as inactive: 0.765. In the case of “CCCACGAUACUCAAUUUUCTT against 1700006J14Rik”, the z-score is reported as inactive: 0.872. In the case of GGUUAAAAUGUUGAUUGCUTT against Ndrg4, the z-score is reported as inactive: 0.116. In the case of GGAGAAAGAUGGCAUAAUGTT against Slitrk6, the z-score is reported as inactive: 0.284. In the case of “GGUAGAGCGACAACUGGAUTT against 9530058B02Rik”, the z-score is reported as inactive: -0.831. For “GGCUCAAAGAAUAUGCCAATT against E130016E03Rik”, the z-score was inactive: 2.64. With GCACUUUCCUAAUGGUCCUTT against Ifnab the z-score was inactive: 0.429. With CCACAUUCUAGGUAUCUUGTT against Mapk3 the z-score was inactive: 0.255. In the case of GGCAUCUCUAUACCUGUCUTT against Adrb3, the z-score is reported as inactive: -1.24. In the case of GGCCUGGAUAACAGAAAAUTT against Rbp7, the z-score is reported as inactive: -1.16. With GGUCGUCUGAUUUUUGAUATT against Atp1a1 the z-score was inactive: -0.874. In the case of GCACUUUGACAUUUUGGUATT against Arl7, the z-score is reported as inactive: -0.0589. With CCUAAAAGCCAUUAUCAAATT against Abce1 the z-score was inactive: 0.00585. With CGUAUAUCCGGUCAGAAGATT against Cnot4 the z-score was inactive: 3.54. In the case of GGUGCAAAACAUGUCUCAATT against Olfm1, the z-score is reported as inactive: 0.457. In the case of “GCUGGAGGACUCAUGUUCATT against 1500031M22Rik”, the z-score is reported as inactive: -0.588. For GCCCUUGAAUAGAAGACAGTT against Gosr2, the z-score was inactive: 1.93. For GCAUGGAAUAAGUACAUUUTT against Slc1a1, the z-score was inactive: 0.883. For GGUUAUAUUAUGUAGCCUATT against Zfp393, the z-score was inactive: 0.947. In the case of UAUUGUCACCGUCUUAGGCTT against Olfr1028, the z-score is reported as inactive: -1.4. In the case of GGUGGUUUUCAGCAAGUACTT against Pde9a, the z-score is reported as inactive: -1.38. In the case of CCUCCCAUGGUUCUUUCGUTT against Atp5g2, the z-score is reported as inactive: -1.01. In the case of GGCCUUUCAGACUGUAUUGTT against Npr2, the z-score is reported as inactive: -1.1. With GGCAAAAUCGUGGUUUCACTT against Cd53 the z-score was inactive: 0.444. For GCGCAUACAGGAAUUUUUATT against Helb, the z-score was inactive: 4.36. With “GGUUAAAGGUGUCUAUAAUTT against 4931400A14Rik” the z-score was inactive: -0.00947. In the case of GCUGACCGUUACAUCACCATT against Mc2r, the z-score is reported as inactive: -0.811.
